Patent publication US20230374151A1 (GlaxoSmithKline, published 2023)

Biological target: TnMUC1 (aberrantly glycosylated MUC1) on tumour cells (human, UniProt P15941 24-1255, truncated Tn / sialyl-Tn O-glycans on Ser/Thr (aberrant glycosylation))
Assay: cell-based or functional assay

B1: TnMUC1 CAR MB053 (tagless, D16 lentiviral vector) on human T cells (other)
chain: DIVMTQSPDSLAVSLGERATINCKSSQSLLNSGDQKNYLTWYQQKPGQPPKLLIFWASTRESGVPDRFSGSGSGTDFTLTISSLQAEDVAVYYCQNDYSYPLTFGQGTKLEIKGGGGSGGGGSGGGGSGGGGSQVQLVQSGAEVKKPGSSVKVSCKASGYTFTDHAIHWVRQAPGQGLEWMGHFSPGNTDIKYNDKFKGRVTITADKSTSTAYMELSSLRSEDTAVYYCKTSTFFFDYWGQGTTVTVSSRTFVPVFLPAKPTTTPAPRPPTPAPTIASQPLSLRPEACRPAAGGAVHTRGLDFACDIYIWAPLAGTCGVLLLSLVITLYCNHRNKRGRKKLLYIFKQPFMRPVQTTQEEDGCSCRFPEEEEGGCELRVKFSRSADAPAYQQGQNQLYNELNLGRREEYDVLDKRRGRDPEMGGKPRRKNPQEGLYNELQKDKMAEAYSEIGMKGERRRGKGHDGLYQGLSTATKDTYDALHMQALPPR
IFN-γ production (MSD), co-culture with WT Jurkat cells, fold increase above untransduced T cells: 1280 fold
